# Screening data, single-dose tests

Amino acid sequences for entries named in this document (tags omitted). Residues count along the entry.
UniProt A4I591, 1-473: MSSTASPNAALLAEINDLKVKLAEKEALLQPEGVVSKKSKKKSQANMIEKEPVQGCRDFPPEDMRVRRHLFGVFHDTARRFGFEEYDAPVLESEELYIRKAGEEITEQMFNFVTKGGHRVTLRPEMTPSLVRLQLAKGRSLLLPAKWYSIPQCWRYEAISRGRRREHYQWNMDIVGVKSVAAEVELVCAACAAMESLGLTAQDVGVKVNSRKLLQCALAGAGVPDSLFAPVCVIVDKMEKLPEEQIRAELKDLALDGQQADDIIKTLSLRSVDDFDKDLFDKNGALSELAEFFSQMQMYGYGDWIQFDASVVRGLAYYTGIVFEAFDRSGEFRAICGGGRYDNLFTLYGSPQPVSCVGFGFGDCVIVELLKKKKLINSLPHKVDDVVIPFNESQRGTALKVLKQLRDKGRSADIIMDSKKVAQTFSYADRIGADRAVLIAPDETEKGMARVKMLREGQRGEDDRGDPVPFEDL
UniProt P9WFT3, whole entry: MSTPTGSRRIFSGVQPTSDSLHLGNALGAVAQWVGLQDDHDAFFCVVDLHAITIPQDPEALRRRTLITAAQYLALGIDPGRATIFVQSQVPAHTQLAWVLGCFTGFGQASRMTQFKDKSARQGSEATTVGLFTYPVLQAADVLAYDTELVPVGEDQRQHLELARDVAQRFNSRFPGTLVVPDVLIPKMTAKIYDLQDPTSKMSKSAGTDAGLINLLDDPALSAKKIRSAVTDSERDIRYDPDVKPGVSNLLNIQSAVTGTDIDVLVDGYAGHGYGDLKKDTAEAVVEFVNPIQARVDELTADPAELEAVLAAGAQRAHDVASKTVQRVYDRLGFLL

Measurements from “University of Dundee, Small-Polar-MMV Screening Library” (2021), ChEMBL document CHEMBL3988442.

Results are given as percent effect. The record does not define 0% and 100%; most values in the screen are far below 50% and negative numbers occur (in some assays of this library far below -100). The compounds are a random part of those screened. A dash means the value is not listed here; it may have been measured.

LiHisRS: 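Histidine-tRNA ligase, Leishmania infantum (UniProt A4I591). Enzyme assay of histidyl-tRNA synthetase; the read-out is not stated. Tested at 30 µM. Higher reads as stronger inhibition (inferred: compounds with an IC50 in retests scored well above the rest). The assay is labelled LdHisRS but filed under L. infantum. Of about 69,000 compounds tested this way, about 410 (0.6%) reached 50% or more in at least one test.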
MtTrpRS: 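Enzyme assay of tryptophanyl-tRNA synthetase; the read-out is not stated. Target: Tryptophan-tRNA ligase, Mycobacterium tuberculosis (UniProt P9WFT3). Tested at 10 µM. Direction is not recorded; retested compounds ran higher, which suggests that high means inhibition. About 65,000 compounds were tested under these conditions; 0.098% (about 64) showed 50% or more at least once.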

SMILES | LiHisRS | MtTrpRS
Cn1cnc2c1CCN(CCOc1ccc(C#N)cc1)C2 | 3.571 | -0.1298
Cc1ccc(S(=O)(=O)N2CC[C@@H]3C[C@H](NC(=O)c4n[nH]cc4Cl)[C@@H]32)cc1 | 2.878 | -4.297
Cc1ccc(CN2CCc3ncnc(C4CCOC4)c3CC2)s1 (stereo not given) | 18.87 | -2.833
CCc1cccc(C)c1NC(=O)c1ccccc1N(C)S(C)(=O)=O | -7.447 | -0.9032
Cn1cc(CCNC(=O)NC2CCS(=O)(=O)C2)cn1 (stereo not given) | 16.35 | -4.929
Cc1ccc(C(=O)N2CC[C@H]3[C@@H]2CCC(=O)N3c2ccccc2)cn1 | 15 | -0.3791
Cc1nccn1-c1ccc(CNS(=O)(=O)N2CCCC(C)C2)cn1 (stereo not given) | 16.67 | 7.192
NC1(CN2CCOCC2)CCCCC1 | 4.225 | -4.416
CCc1cccc(NS(=O)(=O)c2cc3c(c(C(=O)O)c2)OCCO3)c1 | 13.51 | 9.064
COc1ccc(N2CCN(C(=O)CCCc3cn[nH]c3)CC2=O)cc1 | 12.4 | 0.5747
Cc1cc(C(=O)NCC2CCC3(CC2)OCCO3)[nH]n1 | 6.494 | 5.997
CCn1cc(CN(C)S(=O)(=O)c2ccc(C)c(C)c2)cn1 | 8.621 | -5.57
O=C(NCCN1CCNC1=O)c1cnc(-c2cccnc2)nc1 | 20 | 6.207
CC(NC(=O)N1CCCN(C)CC1)c1ccc(S(N)(=O)=O)cc1 (stereo not given) | 21.24 | 2.721
Fc1cccc(-c2nc(CN3CCOC(Cn4cncn4)C3)co2)c1 (stereo not given) | 5.618 | 1.495
Cn1nc(CN2CCCCC(N)C2)c2c(Cl)cccc21 (stereo not given) | 3.306 | 1.876
Cc1nnc2n1CCN(C(=O)CN(C)Cc1ccccc1)C2 | 6.25 | 22.52
O=c1ccc2c(n1Cc1cccnc1)CCN(C1CCOC1)CC2 (stereo not given) | 6 | -4.392
CCc1noc(CN(Cc2cccs2)CC2CCCO2)n1 (stereo not given) | 18.26 | -5.495
COCC(O)CNC(=O)c1cc(COc2ccc3c(c2)CCCC3)on1 (stereo not given) | 9.333 | 0.6256
c1cc(CNCC2Cn3nncc3CO2)ccn1 (stereo not given) | 10 | -4.758
CCCc1c(C(=O)N2CCN(c3nccc(OC)n3)CC2)cnn1C | 4.464 | -2.922
O=C(Cn1cc(I)cn1)N1CCc2ccccc2C1 | -1.942 | -2.211
CN(C)C(=O)Cn1c(C2CC2)c(CN2CCC(O)CC2)c2cccnc21 | 11.35 | 14.76
CC(=O)NCCNC(=O)c1cnc(-c2ccccc2)nc1 | 16.98 | -0.8382
COc1ccccc1C(O)CNC(=O)NCc1cc[nH]n1 (stereo not given) | 1.786 | -1.817
CN1CCN(Cc2cccnc2)C(=O)C12CCN(C1CCOC1)CC2 (stereo not given) | 18 | -6.296
COCCCC1(CO)CCCN(C(=O)c2cnc3c(c2)CCCC3)C1 (stereo not given) | 4.444 | 3.123
Cc1cccc(CN2CC3(CCN(C4CCOC4)CC3)OCC2=O)n1 (stereo not given) | 9.722 | -3.902
Cc1nc(Nc2nnc(C)s2)cc(C2CCCN2C(C)C)n1 (stereo not given) | 14 | -
Cc1c[nH]nc1C1CCCCN1C(=O)CCn1nccc1C (stereo not given) | -7.246 | -
N#CCCN(Cc1ccccn1)C(=O)c1cccc(CN2CCCC2)c1 | 3.54 | -0.8163
O=C(NCCN1CCOCC1)NCc1ncc(-c2ccccc2)o1 | 20.39 | 2.309
O=C(CN1CCC2(CCCN(CCO)C2=O)C1)NCCc1ccccc1 (stereo not given) | -6.849 | 8.755
NS(=O)(=O)c1cccnc1Nc1cccc(Cl)c1Cl | -17.24 | 1.713
CCN1CCN(C(=O)Cn2nc(C(F)(F)F)c(Br)c2C2CC2)CC1 | 23.08 | 0.1942
CN1CCC(Cc2nc(-c3cnccn3)n(C3CCS(=O)(=O)C3)n2)CC1 (stereo not given) | 10.4 | -1.087
CC(=O)c1cccc(OCCCC(=O)NCC2CCCN2C)c1 (stereo not given) | 36 | -4.245
O=S(=O)(C1CC1)N1CCC2(CN(c3ncccn3)C2)C1 | 0 | 3.352
CCOc1cncc(NCCc2nnc3ccccn23)n1 | 15 | -4.499
Cc1nc(C)c(C(=O)NCc2nc3cccc(C)c3n2C)o1 | 10.96 | 1.49
CCOC(=O)N1CCC(Oc2ccc(C(F)(F)F)cn2)CC1 | 10.96 | -1.018
Cc1noc(C(C)C)c1C(=O)NCCCN1CCNCC1 | 9.615 | -5.946
Cc1ccc(C(=O)N2CCC3(CCC(C(=O)NCC4CC4)O3)CC2)o1 (stereo not given) | 21.1 | 3.151
O=C1CN(Cc2nnc(-c3ccc(Br)o3)o2)CCN1 | 18.27 | 1.517
c1csc(NCc2n[nH]c3c2CCN(CC2CC2)C3)n1 | 15.38 | 3.734
Cc1cc(CN2CCN(CC(O)c3cccc(F)c3)CC2)no1 (stereo not given) | 10.17 | -7.335
CC(=O)N(C)CC(=O)Nc1cnc(-n2ccnc2)nc1 | 11.86 | -0.3943
Cc1nn(C)cc1CN1CCc2nc3sccc3c(=O)n2CC1 | 9.396 | -8.045
CCN(CC)C(CNS(=O)(=O)c1ccc(C(N)=O)cc1)c1ccco1 (stereo not given) | -55.29 | 3.809
O=C(c1cccs1)N1CCN(CC2CC2)c2ncccc2C1 | 17.95 | 2.075
CCOCC(O)CNc1cncc(Br)c1 (stereo not given) | 46.58 | 5.462
CCCS(=O)(=O)N1C[C@@H]2COC[C@]2(CN2CCOCC2)C1 | 15.97 | -2.017
O=C(CC1CC1)N[C@@H]1CN(C(=O)c2cccs2)C[C@@H]2CCCO[C@@H]21 | 0.9009 | -

For reference, 6 entries once more:

SMILES,LiHisRS,MtTrpRS
CC(=O)NCCNC(=O)c1cnc(-c2ccccc2)nc1,16.98,-0.8382
CCn1cc(CN(C)S(=O)(=O)c2ccc(C)c(C)c2)cn1,8.621,-5.57
CN(C)C(=O)Cn1c(C2CC2)c(CN2CCC(O)CC2)c2cccnc21,11.35,14.76
CCN(CC)C(CNS(=O)(=O)c1ccc(C(N)=O)cc1)c1ccco1 (stereo not given),-55.29,3.809
Cc1ccc(C(=O)N2CCC3(CCC(C(=O)NCC4CC4)O3)CC2)o1 (stereo not given),21.1,3.151
NS(=O)(=O)c1cccnc1Nc1cccc(Cl)c1Cl,-17.24,1.713